# Source: PMC9636508
# Sequences of proteins named here, by UniProt entry; tags and fusion partners are left off.
# UniProt Q9UNF0: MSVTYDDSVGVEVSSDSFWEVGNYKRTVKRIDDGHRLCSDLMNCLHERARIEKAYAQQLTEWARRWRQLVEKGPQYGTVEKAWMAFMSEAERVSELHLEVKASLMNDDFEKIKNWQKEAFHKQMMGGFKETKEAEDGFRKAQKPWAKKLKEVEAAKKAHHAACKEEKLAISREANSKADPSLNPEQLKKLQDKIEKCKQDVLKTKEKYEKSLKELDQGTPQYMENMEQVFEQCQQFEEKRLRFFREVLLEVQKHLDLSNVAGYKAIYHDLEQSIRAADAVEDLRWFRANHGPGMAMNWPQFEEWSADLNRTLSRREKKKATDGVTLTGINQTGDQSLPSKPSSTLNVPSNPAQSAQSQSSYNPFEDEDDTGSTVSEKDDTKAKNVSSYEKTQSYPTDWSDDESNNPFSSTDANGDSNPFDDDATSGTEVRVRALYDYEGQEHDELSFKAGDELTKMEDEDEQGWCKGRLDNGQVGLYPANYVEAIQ
# Results are given in words; binding and its absence hold for the method and conditions named. In cells and extracts the contact can be indirect. These calls come from enrichment with a bait or labelling near it, and not all partners need be listed.
# Biological target: PACSIN2, bait of the tandem affinity purification (UniProt Q9UNF0)
# Assay: affinity purification with mass spectrometry; tandem affinity purification with PACSIN2 as bait; cells not told
row,Binder,binding
1,"WIPF2 (protein, UniProt Q8TF74 1-440) MPIPPPPPPPPGPPPPPTFHQANTEQPKLSRDEQRGRGALLQDICKGTKLKKVTNINDRSAPILEKPKGSSGGYGSGGAALQPKGGLFQGGVLKLRPVGAKDGSENLAGKPALQIPSSRAAAPRPPVSAASGRPQDDTDSSRASLPELPRMQRPSLPDLSRPNTTSSTGMKHSSSAPPPPPPGRRANAPPTPLPMHSSKAPAYNREKPLPPTPGQRLHPGREGPPAPPPVKPPPSPVNIRTGPSGQSLAPPPPPYRQPPGVPNGPSSPTNESAPELPQRHNSLHRKTPGPVRGLAPPPPTSASPSLLSNRPPPPARDPPSRGAAPPPPPPVIRNGARDAPPPPPPYRMHGSEPPSRGKPPPPPSRTPAGPPPPPPPPLRNGHRDSITTVRSFLDDFESKYSFHPVEDFPAPEEYKHFQRIYPSKTNRAARGAPPLPPILR",binds
2,"TCOF1 (protein, UniProt Q13428 1-1488) MAEARKRRELLPLIYHHLLRAGYVRAAREVKEQSGQKCFLAQPVTLLDIYTHWQQTSELGRKRKAEEDAALQAKKTRVSDPISTSESSEEEEEAEAETAKATPRLASTNSSVLGADLPSSMKEKAKAETEKAGKTGNSMPHPATGKTVANLLSGKSPRKSAEPSANTTLVSETEEEGSVPAFGAAAKPGMVSAGQADSSSEDTSSSSDETDVEGKPSVKPAQVKASSVSTKESPARKAAPAPGKVGDVTPQVKGGALPPAKRAKKPEEESESSEEGSESEEEAPAGTRSQVKASEKILQVRAASAPAKGTPGKGATPAPPGKAGAVASQTKAGKPEEDSESSSEESSDSEEETPAAKALLQAKASGKTSQVGAASAPAKESPRKGAAPAPPGKTGPAVAKAQAGKREEDSQSSSEESDSEEEAPAQAKPSGKAPQVRAASAPAKESPRKGAAPAPPRKTGPAAAQVQVGKQEEDSRSSSEESDSDREALAAMNAAQVKPLGKSPQVKPASTMGMGPLGKGAGPVPPGKVGPATPSAQVGKWEEDSESSSEESSDSSDGEVPTAVAPAQEKSLGNILQAKPTSSPAKGPPQKAGPVAVQVKAEKPMDNSESSEESSDSADSEEAPAAMTAAQAKPALKIPQTKACPKKTNTTASAKVAPVRVGTQAPRKAGTATSPAGSSPAVAGGTQRPAEDSSSSEESDSEEEKTGLAVTVGQAKSVGKGLQVKAASVPVKGSLGQGTAPVLPGKTGPTVTQVKAEKQEDSESSEEESDSEEAAASPAQVKTSVKKTQAKANPAAARAPSAKGTISAPGKVVTAAAQAKQRSPSKVKPPVRNPQNSTVLARGPASVPSVGKAVATAAQAQTGPEEDSGSSEEESDSEEEAETLAQVKPSGKTHQIRAALAPAKESPRKGAAPTPPGKTGPSAAQAGKQDDSGSSSEESDSDGEAPAAVTSAQVIKPPLIFVDPNRSPAGPAATPAQAQAASTPRKARASESTARSSSSESEDEDVIPATQCLTPGIRTNVVTMPTAHPRIAPKASMAGASSSKESSRISDGKKQEGPATQVSKKNPASLPLTQAALKVLAQKASEAQPPVARTQPSSGVDSAVGTLPATSPQSTSVQAKGTNKLRKPKLPEVQQATKAPESSDDSEDSSDSSSGSEEDGEGPQGAKSAHTLGPTPSRTETLVEETAAESSEDDVVAPSQSLLSGYMTPGLTPANSQASKATPKLDSSPSVSSTLAAKDDPDGKQEAKPQQAAGMLSPKTGGKEAASGTTPQKSRKPKKGAGNPQASTLALQSNITQCLLGQPWPLNEAQVQASVVKVLTELLEQERKKVVDTTKESSRKGWESRKRKLSGDQPAARTPRSKKKKKLGAGEGGEASVSPEKTSTTSKGKAKRDKASGDVKEKKGKGSLGSQGAKDEPEEELQKGMGTVEGGDQSNPKSKKEKKKSDKRKKDKEKKEKKKKAKKASTKDSESPSQKKKKKKKKTAEQTV",binds

# The remaining lines, values ahead:
row,binding,Binder
1,binds,"SH3BP1, found with the PACSIN2 bait (protein, UniProt Q9Y3L3 1-701) MMKRQLHRMRQLAQTGSLGRTPETAEFLGEDLLQVEQRLEPAKRAAHNIHKRLQACLQGQSGADMDKRVKKLPLMALSTTMAESFKELDPDSSMGKALEMSCAIQNQLARILAEFEMTLERDVLQPLSRLSEEELPAILKHKKSLQKLVSDWNTLKSRLSQATKNSGSSQGLGGSPGSHSHTTMANKVETLKEEEEELKRKVEQCRDEYLADLYHFVTKEDSYANYFIRLLEIQADYHRRSLSSLDTALAELRENHGQADHSPSMTATHFPRVYGVSLATHLQELGREIALPIEACVMMLLSEGMKEEGLFRLAAGASVLKRLKQTMASDPHSLEEFCSDPHAVAGALKSYLRELPEPLMTFDLYDDWMRAASLKEPGARLQALQEVCSRLPPENLSNLRYLMKFLARLAEEQEVNKMTPSNIAIVLGPNLLWPPEKEGDQAQLDAASVSSIQVVGVVEALIQSADTLFPGDINFNVSGLFSAVTLQDTVSDRLASEELPSTAVPTPATTPAPAPAPAPAPAPALASAATKERTESEVPPRPASPKVTRSPPETAAPVEDMARRTKRPAPARPTMPPPQVSGSRSSPPAPPLPPGSGSPGTPQALPRRLVGSSLRAPTVPPPLPPTPPQPARRQSRRSPASPSPASPGPASPSPVSLSNPAQVDLGAATAEGGAPEAISGVPTPPAIPPQPRPRSLASETN"
2,binds,"ARHGAP17 (protein, UniProt Q68EM7 1-881) MKKQFNRMKQLANQTVGRAEKTEVLSEDLLQIERRLDTVRSICHHSHKRLVACFQGQHGTDAERRHKKLPLTALAQNMQEASTQLEDSLLGKMLETCGDAENQLALELSQHEVFVEKEIVDPLYGIAEVEIPNIQKQRKQLARLVLDWDSVRARWNQAHKSSGTNFQGLPSKIDTLKEEMDEAGNKVEQCKDQLAADMYNFMAKEGEYGKFFVTLLEAQADYHRKALAVLEKTLPEMRAHQDKWAEKPAFGTPLEEHLKRSGREIALPIEACVMLLLETGMKEEGLFRIGAGASKLKKLKAALDCSTSHLDEFYSDPHAVAGALKSYLRELPEPLMTFNLYEEWTQVASVQDQDKKLQDLWRTCQKLPPQNFVNFRYLIKFLAKLAQTSDVNKMTPSNIAIVLGPNLLWARNEGTLAEMAAATSVHVVAVIEPIIQHADWFFPEEVEFNVSEAFVPLTTPSSNHSFHTGNDSDSGTLERKRPASMAVMEGDLVKKESFGVKLMDFQAHRRGGTLNRKHISPAFQPPLPPTDGSTVVPAGPEPPPQSSRAESSSGGGTVPSSAGILEQGPSPGDGSPPKPKDPVSAAVPAPGRNNSQIASGQNQPQAAAGSHQLSMGQPHNAAGPSPHTLRRAVKKPAPAPPKPGNPPPGHPGGQSSSGTSQHPPSLSPKPPTRSPSPPTQHTGQPPGQPSAPSQLSAPRRYSSSLSPIQAPNHPPPQPPTQATPLMHTKPNSQGPPNPMALPSEHGLEQPSHTPPQTPTPPSTPPLGKQNPSLPAPQTLAGGNPETAQPHAGTLPRPRPVPKPRNRPSVPPPPQPPGVHSAGDSSLTNTAPTASKIVTDSNSRVSEPHRSIFPEMHSDSASKDVPGRILLDIDNDTESTAL"
